Measurements: US20050227918A1, “Method for assaying susceptibility to cancer therapy in a subject by assaying for tumors of P53” (priority 2004, published 2005)
No constants are given. Whether binding was seen depends on the method and setting. Some binding calls cover weakened binding; strength is not graded here. Where a sequence is shown, tags or fusion partners need not be part of it.

Biological target: T1, HA tagged p73α (UniProt O15350)
T1 sequence (looked up): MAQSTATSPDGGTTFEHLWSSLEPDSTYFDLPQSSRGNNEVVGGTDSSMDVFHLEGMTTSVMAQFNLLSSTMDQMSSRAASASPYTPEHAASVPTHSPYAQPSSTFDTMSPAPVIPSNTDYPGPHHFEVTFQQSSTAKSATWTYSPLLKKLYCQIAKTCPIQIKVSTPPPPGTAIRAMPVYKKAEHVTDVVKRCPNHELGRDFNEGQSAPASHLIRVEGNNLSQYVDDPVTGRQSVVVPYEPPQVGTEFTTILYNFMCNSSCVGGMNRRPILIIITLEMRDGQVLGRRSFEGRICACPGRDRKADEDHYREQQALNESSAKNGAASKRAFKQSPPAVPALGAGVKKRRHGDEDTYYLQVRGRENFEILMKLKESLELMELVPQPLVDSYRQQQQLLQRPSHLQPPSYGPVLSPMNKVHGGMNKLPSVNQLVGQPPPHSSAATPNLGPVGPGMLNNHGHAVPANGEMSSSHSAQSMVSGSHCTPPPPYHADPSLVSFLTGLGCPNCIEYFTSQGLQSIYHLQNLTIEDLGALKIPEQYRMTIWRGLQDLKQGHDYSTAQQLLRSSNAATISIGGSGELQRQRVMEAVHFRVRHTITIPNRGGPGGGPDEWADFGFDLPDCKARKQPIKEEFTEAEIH
Assay: no binding assay described in the example; the sentence is followed by literature citations

B1: p73DD (protein, UniProt O15350 327-636, looked up)
chain: KRAFKQSPPAVPALGAGVKKRRHGDEDTYYLQVRGRENFEILMKLKESLELMELVPQPLVDSYRQQQQLLQRPSHLQPPSYGPVLSPMNKVHGGMNKLPSVNQLVGQPPPHSSAATPNLGPVGPGMLNNHGHAVPANGEMSSSHSAQSMVSGSHCTPPPPYHADPSLVSFLTGLGCPNCIEYFTSQGLQSIYHLQNLTIEDLGALKIPEQYRMTIWRGLQDLKQGHDYSTAQQLLRSSNAATISIGGSGELQRQRVMEAVHFRVRHTITIPNRGGPGGGPDEWADFGFDLPDCKARKQPIKEEFTEAEIH
With B1 as the binder, how does the binding read?
The binding was “binds”.
